Data as given in PubChem BioAssay AID720505 (Drosophila RNAi Screening Center, 2013).
In all, the deposit lists about 20,000 reagents; shown is an unselected part of those with a known target gene and a result. In the full data, about 2,100 (10%) were called active. 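Raw plate signals without normalisation; calls rest on control-based scores that were not deposited; replicate 2 separates called from uncalled poorly.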 A number with no mark means an inactive call. A plus sign joins genes that one reagent is predicted to hit. Reagent sequences are not shown. The record does not give: the amount of reagent, the time to read-out.

Aim: 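Fly regulators or components of the CRAC channel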 (primary screen)
Cell system: Drosophila S2R+ cells
Reagents: long dsRNA against Drosophila genes
Conditions: thapsigargin (2 µM) in calcium-free buffer to empty internal stores, then 2 mM calcium added back
Measurement: 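Stores emptied by 2 µM thapsigargin without calcium, then 2 mM calcium re-added; fluo-4 fluorescence followed by FLIPR in 384-well plates, per-well averaged endpoint, raw; two screen passes, some wells retested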
Direction: calcium signal and retest calcium signal: higher = more calcium entry after store depletion
Call rule: 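About 1500 genes called as lowering calcium entry, by varying amounts, judged against per-plate control wells with STIM1 as positive and Rho1 as negative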
Calls: active = called as lowering calcium entry; inactive = not called

gene knocked down	amplicon	calcium signal, replicate 1	calcium signal, replicate 2	retest calcium signal, replicate 1	retest calcium signal, replicate 2
spi	DRSC03618	206	80.9		
RpL27A	DRSC00781	76.4	108		
CG17780 + CG17781	DRSC15266	277	101		
Creld	DRSC00308	140	89.5		
dpr9	DRSC14534	150	144		
dpr9	DRSC14985	138	117		
dpr9	DRSC14986	139	132		
CG2852	DRSC04321	83.9	129		
Rtel1	DRSC18343	200	155		
Cyp18a1	DRSC20235	34.6 (active)	83.8		
brat	DRSC03497	103	146		
CG31245	DRSC15498	233	171		
CG10984	DRSC09817	90.2	143		
CG30491	DRSC21472	199	120		
Adk2	DRSC09827	123	73.8		
Osi24	DRSC12275	120	141		
ninaG	DRSC16102	161	118		
CG17855	DRSC02638	166	188		
Gr61a	DRSC08358	107	110		
Sym	DRSC12301	95.4	88		
Gpa2	DRSC21071	99.5	92.5		
CG42633	DRSC16061	143	88.1		
Pdp	DRSC17825	116	127		
lncRNA:CR32730	DRSC22957	83	95.2		
CG43693	DRSC10625	70.5 (active)	79		
lncRNA:roX2	DRSC22237	72	205		
CG8673	DRSC03105	156	169		
tai	DRSC02207	182	173		
tai	DRSC02673	188	162		
CG6280	DRSC06972	107	166		
Reps	DRSC02940	186	169		
cno	DRSC12374	62.8 (active)	103		
cno	DRSC22980	98.5	113		
eater	DRSC15969	148	121	7329	139
eater	DRSC22254	89	121		
Orct2	DRSC14613	170	214		
mael	DRSC11894	102	77.5		
Vsx2	DRSC17397	9471	165		
Vsx2	DRSC18087	125	142		
Vsx2	DRSC18088	140	135	6176	99.3
Vsx2	DRSC18089	104 (active)	156	140	5538
Vsx2	DRSC23089	96.8	136		
Vsx2	DRSC23273	100	105		
Had1	DRSC20216	89.1	129		
CG34427	DRSC09978	87.5	68		
ScpX	DRSC03430	97.9	122		
Pli	DRSC16792	211	242		
CG32459	DRSC11852	90.9	163		
CG18605	DRSC06772	143	134		
CG30325	DRSC05685	87 (active)	86.7		
CG10943	DRSC09805	113	62.8		
CG7386	DRSC10832	115	95.4		
CG41520	DRSC21102	129	115		
CG41520	DRSC21103	222	117		
CG16736	DRSC15145	97.5	131		
CG11030	DRSC02120	126	98.2		
